doi:10.1101/2025.03.07.642083

System: AsTobZL (ToAureo1 bZIP fused to AsPhot1 linker+LOV2) (Thalassiosira oceanica / Avena sativa (chimera))
Assay: EMSA
Conditions: heparin (high-salt) purification, 2 mM Mg2+

Q: Does “TGTAGCGTCTGACGTGGTTCCCAC (double strand) [Aureo-box substrate DNA]” bind (dark, <2-fold difference from light)?
A: Result: binds

Q: Does “TGTAGCGTCTGACGTGGTTCCCAC (double strand) [Aureo-box substrate DNA]” bind (light, <2-fold difference from dark)?
A: Result: binds

For at least one entry, the source does not settle the construct or the ends of the probe. At least one verdict rests on a figure or table, not on a statement of the authors.
